PubChem BioAssay AID493014 (National Center for Advancing Translational Sciences (NCATS), 2011)
The list shows a part of the results. These are further read-outs of the screen, such as a control signal, another cell line or another target. No call is given for them. Most of these compounds were active or inconclusive in the main read-out, so they are no random draw. Words in brackets tell the shape of the fitted curve; partial curves, single points and poor fits give uncertain potencies.

Experiment: qHTS Assay to Find Inhibitors of Chronic Active B-Cell Receptor Signaling
Settings: ABC-DLBCL IkBa-CBG/CBR reporter, luminescence ratio (green luciferase fused to IkBa over red control in TMD8 lymphoma cells), 4 h
In short: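 TMD8 ABC-DLBCL cells carrying doxycycline-inducible green luciferase fused to IkappaBalpha plus unfused red luciferase were exposed to compounds (up to 46 uM) for 4 hrs at 37C. Activity came from the overlap-corrected green/red luminescence ratio.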

[1] = measured here: CBR red luminescence, cell number
[2] = measured here: IkBa-CBG green luminescence

## Cc1ccc(-c2cc(C(F)(F)F)c(C#N)c(=O)[nH]2)cc1
[1]
  AC50: 16.4 µM [rising, partial curve, poor fit]

## CSc1nnc(NC(=O)c2nc(S(=O)(=O)Cc3ccccc3F)ncc2Cl)s1
[1]
  AC50: 22.4 µM [falling, single point]

## O=S(=O)(NCCOCCNS(=O)(=O)c1ccccc1)c1ccccc1
[1]
  AC50: 15.8 µM [rising, single point]

## CCc1nc2nc(C)c(NS(=O)(=O)c3cccs3)c(=O)n2[nH]1
[1]
  AC50: 6.31 µM [falling, single point]

## COc1cccc2cc(C(C)N(CCCN3CCOCC3)C(=S)Nc3c(C)cccc3C)oc12 (configuration not stated)
[1]
  AC50: 17.8 µM [rising, single point]

## S=c1[nH]cc(-c2ccccc2)[nH]1
[1]
  AC50: 8.91 µM [rising, partial curve, poor fit]

## COc1ccc(NC(=O)c2cnc3n(c2=O)CCS3)cc1OC
[1]
  AC50: 1.46 µM [falling, partial curve, poor fit]

## O=C(N/N=C/c1ccco1)c1cc2ccccc2o1
[1]
  AC50: 10 µM [falling, partial curve]

## O=C(NCCCCNC(=O)c1ccccc1F)c1ccccc1F
[1]
  AC50: 35.5 µM [falling, single point]

## COC(=O)C1=C(N)Oc2cc(N(C)C)ccc2C1c1ccccc1OC (configuration not stated)
[1]
  AC50: 15.8 µM [rising, single point]

## O=C(O)c1ccccc1NC1CCCCC1NS(=O)(=O)c1ccccc1 (configuration not stated)
[1]
  AC50: 1.12 µM [falling, full curve, poor fit]

## Cc1cc(=O)n2cccc(O)c2n1
[2]
  AC50: 22.4 µM [falling, single point]

## C/C(=N\NC(=O)c1cccnc1)c1c(O)cc(C)oc1=O
[1]
  AC50: 18.4 µM [falling, partial curve]

## O=S(=O)(c1ccc(F)c(Cl)c1)N1CCCC1
[1]
  AC50: 14.6 µM [rising, partial curve, poor fit]

## Oc1[nH]c2ccccc2c1N=NC(=S)NCCc1ccccc1
[1]
  AC50: 29.1 µM [rising, single point]
[2]
  AC50: 29.1 µM [falling, single point]

## O=C(O)CC1(CC(=O)Nc2ccc3sccc3c2)CCCCC1
[1]
  AC50: 11.2 µM [falling, partial curve]

## COc1ccc(C2(C(=O)Nc3ccc(C(=O)O)cc3)CCOCC2)cc1
[1]
  AC50: 0.92 µM [rising, partial curve, poor fit]

## CCOC(=O)c1cnc(SCC(=O)c2ccc(Cl)cc2)nc1N
[1]
  AC50: 5.17 µM [falling, full curve]

## COc1cc2c(cc1OC)C(c1ccccc1[N+](=O)[O-])N(C(C)=O)CC2 (configuration not stated)
[1]
  AC50: 15.8 µM [rising, partial curve, poor fit]

## Cc1ccc(C)c2[nH]c(=O)c(CN(Cc3nnnn3C3CCCCC3)CC3CCCO3)cc12 (configuration not stated)
[1]
  AC50: 35.5 µM [falling, single point]

## Cc1ccc(O)c(C(=O)c2cc(C#N)c(=O)n(C(C)c3ccccc3)c2)c1 (configuration not stated)
[1]
  AC50: 35.5 µM [falling, single point]

## CC(NC(=O)c1ccc([N+](=O)[O-])o1)C1CC2CCC1C2 (configuration not stated)
[1]
  AC50: 10.3 µM [falling, single point]

## Cc1cc2oc(=O)cc(CN3CCCc4ccccc43)c2cc1C
[1]
  AC50: 22.4 µM [rising, single point]
[2]
  AC50: 15.8 µM [falling, partial curve, poor fit]

## O=C(N/N=C/c1cn(-c2ccccc2)nc1-c1cccnc1)c1ccccc1
[1]
  AC50: 22.4 µM [falling, single point]

## NNC(=O)c1nnn(-c2nonc2N)c1-c1cccs1
[1]
  AC50: 0.562 µM [falling, full curve, poor fit]

## CN(C)c1ccc(/C=C(/NC(=O)c2ccccc2)C(=O)N/N=C/c2ccc([N+](=O)[O-])c(O)c2)cc1
[1]
  AC50: 14.6 µM [falling, partial curve]

## Cc1nn(-c2ccc(Cl)cc2)c2[nH]c(=O)c(CNCc3ccc4c(c3)OCO4)cc12
[1]
  AC50: 35.5 µM [falling, partial curve, poor fit]

## CCCSc1ccc2nc(NC(=O)OC)[nH]c2c1
[1]
  AC50: 2.91 µM [rising, full curve]

## CCC(C)NC(=O)CSc1c2c(nc3ccccc13)CCCC2 (configuration not stated)
[1]
  AC50: 14.1 µM [falling, partial curve]

## O=C(COC(=O)c1cccnc1Nc1ccccc1F)NCCN1C(=O)CSC1=O
[1]
  AC50: 16.4 µM [falling, single point]

## COC(=O)c1scc(C)c1NC(=O)/C=C/C(=O)O
[1]
  AC50: 20 µM [falling, single point]

## CCc1ccc(C(=O)NN=C2CCCCCC2)s1
[1]
  AC50: 14.1 µM [falling, partial curve, poor fit]

## Cc1ccc(O)c(C(=O)/C=C/c2ccc3c(c2)OCCO3)c1
[1]
  AC50: 35.5 µM [falling, single point]

## CCC(c1nnnn1C1CCCCC1)N(Cc1ccco1)Cc1cc2ccc(OC)cc2[nH]c1=O (configuration not stated)
[1]
  AC50: 35.5 µM [rising, partial curve, poor fit]

## COc1cc(CC(=O)NCc2ccccn2)cc(OC)c1OC
[1]
  AC50: 32.6 µM [rising, single point]

## COCCNc1nnc(SCC(=O)c2c[nH]c3ccccc23)s1
[1]
  AC50: 23.1 µM [falling, single point]

## O=C(Nc1ccc(OCC(F)(F)C(F)F)cc1)c1ccncc1
[1]
  AC50: 2.24 µM [rising, full curve]

## CC(C)C(=O)Nc1cccc(NC(=S)NC(=O)c2ccc([N+](=O)[O-])cc2)c1
[1]
  AC50: 6.31 µM [rising, partial curve, poor fit]

## COc1ccc(CCNC(=O)c2cccc(NS(=O)(=O)c3ccccc3F)c2)cc1OC
[1]
  AC50: 35.5 µM [rising, single point]

## CC(C)CNC(=S)Nc1ccc(F)cc1
[1]
  AC50: 16.4 µM [rising, partial curve, poor fit]

## CCC(CC)C(=O)Nc1cccc(/C(C)=N/NC(=O)c2ccccc2Cl)c1
[1]
  AC50: 5.8 µM [falling, partial curve]

## CCCCn1c(=O)n(CC(=O)Nc2ccc(OC)c(Cl)c2)c(=O)c2c1nc(CO)n2CCC
[1]
  AC50: 0.517 µM [rising, full curve, poor fit]

## CSc1ncccc1C(=O)Nc1ccc2nc(C)sc2c1
[1]
  AC50: 35.5 µM [falling, single point]

## Fc1cccc(Oc2nc3ccccc3n3cccc23)c1
[1]
  AC50: 29.1 µM [rising, single point]

## CSc1ccc(NC(=O)Nc2ccccc2C(N)=O)cc1
[1]
  AC50: 11.2 µM [falling, partial curve]

## CC1(C)CC(=O)C2=C(C1)OC(N)=C(C#N)C2C#Cc1ccccc1 (configuration not stated)
[1]
  AC50: 3.16 µM [falling, full curve, poor fit]

## Cc1nc(NC(=O)COC(=O)/C=C/c2ccco2)c(Cl)cc1Cl
[1]
  AC50: 29.1 µM [rising, partial curve, poor fit]

## COc1ccc(Nc2nc(C)cc(C)c2C#N)cc1
[1]
  AC50: 2.06 µM [falling, partial curve, poor fit]

## CCC(C)(C)NC(=O)C(c1ccc(OC)cc1)N(Cc1ccco1)C(=O)CCC(=O)Nc1cc(C)on1 (configuration not stated)
[1]
  AC50: 2.59 µM [falling, partial curve, poor fit]

## CC(C)CC[n+]1ccccc1/C=C/c1ccc(N(C)C)cc1
[1]
  AC50: 20 µM [falling, partial curve, poor fit]

## COC(=O)c1ccc(/C=N/Nc2nc(C)c(C)s2)cc1
[1]
  AC50: 0.251 µM [falling, full curve, poor fit]

## Cc1cccc([C@@H]2[C@@H]3C(=O)N(Cc4ccccc4)C(=O)[C@@H]3[C@]3(Cc4ccccc4)C(=O)N(c4cccc(F)c4)C(=O)N23)c1
[1]
  AC50: 5.8 µM [falling, partial curve]

## COc1ccccc1-n1cnnc1SCC(=O)Nc1nc(C)c(Cl)cc1Cl
[1]
  AC50: 13 µM [falling, partial curve]

## O=C(CSc1nncc2ccccc12)Nc1ccc(C(=O)O)cc1
[1]
  AC50: 11.2 µM [falling, partial curve]

## O=C(Nc1ccc(F)c(Cl)c1)c1ccccc1
[1]
  AC50: 16.4 µM [falling, single point]

## O=C(Nc1ccc(C(F)(F)F)cc1)c1cccnc1N1CCOCC1
[1]
  AC50: 29.1 µM [falling, single point]

## CN1CCN(C2=Cc3cc(Cl)ccc3Sc3cc(F)ccc32)CC1
[1]
  AC50: 18.4 µM [falling, single point]

## Cc1ccc(F)cc1NC(=O)CCC(=O)c1cccs1
[1]
  AC50: 29.1 µM [falling, single point]

## CCc1cccc2c(C(=O)CCl)c[nH]c12
[1]
  AC50: 18.4 µM [falling, partial curve, poor fit]

## C#CC(=O)N(c1cccc(OC)c1)C(C(=O)NC1CCCC1)c1cccs1 (configuration not stated)
[1]
  AC50: 7.94 µM [falling, partial curve]

## Cc1nc2ccc(NC(=O)N3CCSCC3)cc2s1
[1]
  AC50: 14.6 µM [falling, partial curve, poor fit]

## CC(C)c1ccc(N(C(=O)c2ccc3c(c2)OCO3)C2C=CS(=O)(=O)C2)cc1 (configuration not stated)
[1]
  AC50: 20 µM [falling, partial curve, poor fit]

## CCCCN(CC)CCNC(=O)CN1C(=O)COc2ccc(S(=O)(=O)N3CCCC3)cc21
[1]
  AC50: 32.6 µM [falling, partial curve, poor fit]

## Cc1ccc(OCc2cc(C(=O)NCC3COCCO3)no2)cc1C (configuration not stated)
[1]
  AC50: 20 µM [falling, single point]

## Cc1ccc(S(=O)(=O)Nc2ccc(NC(=O)c3cccnc3)cc2)cc1
[1]
  AC50: 6.31 µM [rising, single point]
